The whole screen tested about 360,000 compounds, of which about 7,500 (2.1%) were called active. This list was built around the results that the source calls inconclusive (neither active nor inactive); the mix of calls is not that of the screen. The call rests on the fitted dose curve; in most records, active means well fitted inhibition curve with a large enough effect; inconclusive means small, poorly fitted or top-dose-only effect, or effect the other way; inactive means flat fitted curve, though single readings scatter. Potencies beside an inconclusive call are fits to weak or partial responses and may not hold up.
Assay: Nrf2 qHTS screen for inhibitors; further: nearly all actives have a fitted effect of over 60% in size
Conditions: A549 ARE-Fluc reporter, luciferase luminescence, 18-24 h; series mostly up to 46 µM
Procedure, shortened: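 Concentration-response testing used A549 ARE_Fluc cells at 5000 cells/well. Following an 18-24 h compound incubation, viability was read by fluorescence (Ex 405/Em 525) and luciferase output by luminescence.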
Potency means the concentration at half of the fitted maximal effect.

SMILES	Potency
CC1=C(C(=O)NCc2cccc(Br)c2)C2(CCCCC2)OC1=O	inactive
CCOC(=O)c1nc(S(C)(=O)=O)ncc1Cl	inactive
CCOc1ccc(-c2nonc2NC(=O)c2ccco2)cc1	inconclusive: 18.4 µM [falling, partial curve, poor fit]
CCOc1ccc(NC(=O)CSc2nc3c(oc4ccccc43)c(=O)n2-c2cc(C)cc(C)c2)cc1	inactive
O=C(Nc1cccnc1)C1CCC(CNS(=O)(=O)c2cccc3nsnc23)CC1 (configuration not stated)	inconclusive: 4.11 µM [falling, partial curve, poor fit]
N/C(=N\OC(=O)c1ccc2c(c1)OCO2)c1ccc(Br)cc1	inconclusive: 20.6 µM [activator, partial curve]
COc1ccc(N=C(C)c2sc3ccccc3c2O)cc1	inconclusive: 8.2 µM [activator, partial curve]
COc1cc(C(=O)Nc2ccc3c(c2)nc(C)n3C)cc(OC)c1OC	inconclusive: 16.4 µM [activator, partial curve, poor fit]
CC(C)(CO)Nc1nc(Nc2ccccc2)nc(Nc2ccccc2)n1	inconclusive: 32.6 µM [falling, single point]
COc1ccc2[nH]c3c(N4CCc5ccccc5C4)ncnc3c2c1	active: 16.4 µM
CN(CC(=O)Nc1ccc(F)cc1)C(=O)CN1C(=O)NC2(CCCC2)C1=O	inactive
COc1ccc(NC(=O)CN2CCC(C(N)=O)(N3CCCCC3)CC2)c(OC)c1	inconclusive: 20.6 µM [falling, partial curve, poor fit]
COc1ccc(/C=N/Nc2nc(-c3ccc(C)cc3)c(NC(C)=O)s2)cc1	inconclusive: 16.4 µM [activator, single point]
CCN(CC)S(=O)(=O)c1ccc(C(=O)Nc2ccc(Cc3ccncc3)cc2)cc1	active: 20.6 µM
O=C(CCCN1C(=O)c2cccc3cccc(c23)C1=O)N1CCN(c2ccc(F)cc2)CC1	inconclusive: 29.1 µM [falling, single point]
O=C(c1ccccc1)N1CCN2C(=O)c3ccccc3C12c1ccc(Cl)cc1 (configuration not stated)	active: 13 µM
O=C1NCCCc2c1oc1ccc(O)cc21	inconclusive: 29.1 µM [falling, single point]
CC(=O)c1ccc(OCc2ncc(C(F)(F)F)cc2Cl)cc1	inconclusive: 6.51 µM [falling, single point]
CC(C)CNC(=O)COCc1cc(-c2ccc3c(c2)OCO3)on1	inconclusive: 4.11 µM [activator, partial curve]
O=C(NCCCN1CCCC1=O)c1cccc(NS(=O)(=O)c2ccccc2)c1	inactive
CN(Cc1ccccc1)C(=O)c1ccc(NC(=O)Cc2cccc(NC(=O)C3CCCN(C(=O)CCc4ccccc4)C3)c2)cc1 (configuration not stated)	active: 20.6 µM
Cn1c(/C(C#N)=C2/CCCCCN2)nc2ccccc21	inconclusive: 18.4 µM [activator, single point]
CCNC(=S)Nc1ccc(OCc2nc3ccccc3s2)cc1	inconclusive: 5.8 µM [activator, full curve]

SMILES	Potency
COC(=O)[C@@](C)(O)C1(C(=O)SC(C)(C)C)CC1	inconclusive: 13 µM [activator, partial curve]
C=CCc1cccc(C=Nc2cccn3cc(-c4ccccc4)nc23)c1O	inconclusive: 18.4 µM [activator, single point]
Cc1ccc(Cl)cc1NS(=O)(=O)c1cc2c(cc1Cl)CCC(=O)N2	inactive
CCCCCn1nc(-c2ccccc2)c2nc3ccccc3nc21	inconclusive: 13 µM [activator, partial curve, poor fit]
CSc1nnc2c(n1)OC=Nc1ccc(Br)cc1-2	inconclusive: 29.1 µM [falling, single point]
Cc1cccc(-c2noc(CN(C3CCCCC3)S(=O)(=O)c3ccc(F)cc3)n2)c1	inconclusive: 0.82 µM [activator, full curve, poor fit]
Cc1ccc(/C=C2\SC(=S)N(CCCC(=O)NC3CCCC3)C2=O)cc1	active: 10.3 µM
CCOC(=O)c1ccc(NC(=S)N2CCCC(C)C2)cc1 (configuration not stated)	inconclusive: 13 µM [activator, partial curve]
O=S(=O)(c1ccccc1)N1CCC(n2cnc3ccccc32)CC1	inconclusive: 18.4 µM [falling, single point]
COc1cc(/C=C/c2ccc3c(Br)cc(Br)c(O)c3n2)ccc1O	inconclusive: 29.1 µM [falling, single point]
COc1cccc(NC(=O)C(OC(=O)CNC(=O)c2ccccc2)c2ccccc2)c1 (configuration not stated)	inconclusive: 29.1 µM [activator, partial curve, poor fit]
CCN=C1NN=C(c2cc(C)n(Cc3ccco3)c2C)CS1	inconclusive: 11.6 µM [falling, partial curve, poor fit]
CN1N=C2c3ccccc3CCCC2C1c1ccc(F)cc1 (configuration not stated)	inconclusive: 23.1 µM [activator, single point]
Cc1c(C#N)c2ccccc2n1CC(=O)N1CCc2ccccc2C1	inconclusive: 0.058 µM [falling, full curve, poor fit]
CCOc1ccc(NC(=O)c2ccc(CN3CCc4ccccc4C3)cc2)cc1	inconclusive: 5.17 µM [falling, partial curve]
CCOC(=O)c1c(C)oc2c(F)c(F)c(F)c(F)c2c1=O	inactive
O=C(Nc1ccc(S(=O)(=O)Nc2ccc(F)cc2)cc1)c1ccc(CN2CCOCC2)cc1	active: 3.66 µM
O=C(C[n+]1cnn(CC(=O)c2ccc(Cl)cc2Cl)c1)c1ccc([N+](=O)[O-])cc1	inactive
CCc1ccccc1OCC(=O)Nc1cccc(S(=O)(=O)NC2=NCCCCC2)c1	inconclusive: 29.1 µM [falling, single point]
COc1ccc(-c2noc(CCC(=O)NCC3CCN(Cc4cccc(C)c4)CC3)n2)cc1	inconclusive: 14.6 µM [falling, partial curve, poor fit]
O=C(Nc1nnc(C(F)(F)F)s1)c1ccc(Br)s1	inconclusive: 20.6 µM [activator, partial curve]
COc1ccc(OC)c(-c2cc(C(=O)Nc3c(C)nn(Cc4ccccc4Cl)c3C)no2)c1	inconclusive: 11.6 µM [falling, partial curve, poor fit]
S=C(Nc1ccc2nsnc2c1)N1CCCCCC1	inconclusive: 11.6 µM [activator, partial curve]

3 entries from above, set out differently.

| SMILES | Potency |
| --- | --- |
| CCCCCn1nc(-c2ccccc2)c2nc3ccccc3nc21 | inconclusive: 13 µM [activator, partial curve, poor fit] |
| O=C(Nc1ccc(S(=O)(=O)Nc2ccc(F)cc2)cc1)c1ccc(CN2CCOCC2)cc1 | active: 3.66 µM |
| COc1ccc(-c2noc(CCC(=O)NCC3CCN(Cc4cccc(C)c4)CC3)n2)cc1 | inconclusive: 14.6 µM [falling, partial curve, poor fit] |

Remaining list, next part:

SMILES	Potency
Cc1ccccc1NC(=O)Nc1nnc(N2CCCCCC2)s1	inconclusive: 18.4 µM [falling, single point]
COc1ccccc1NC(=O)CCn1nc(-c2ccccc2OC)c2c(C)cc(C)nc21	inconclusive: 18.4 µM [falling, single point]
O=C(C1CCN(S(=O)(=O)c2ccc(-n3cnnn3)cc2)CC1)N1CCCCC1	active: 13 µM
Cc1ccccc1OCC(=O)OCc1cc(=O)n2nc(C3CC3)sc2n1	inconclusive: 18.4 µM [activator, partial curve]
CCCn1cnc2c(SCCc3ccccc3)nc(N)nc21	inconclusive: 3.66 µM [activator, full curve]
Cc1cc(C)c(C)c(OCC(=O)Nc2ccc(S(=O)(=O)Nc3nc(C)cc(C)n3)cc2)c1	inactive
CN(CC(=O)O/N=C(\N)c1ccccn1)S(=O)(=O)c1cc(Cl)ccc1Cl	inconclusive: 29.1 µM [activator, single point]
O=[N+]([O-])c1cc(Cl)c2cccnc2c1O	inconclusive: 18.4 µM [falling, single point]
Cc1ccc(S(=O)(=O)NN2C(=O)c3ccccc3NC2c2ccccc2F)cc1 (configuration not stated)	inconclusive: 25.9 µM [falling, partial curve, poor fit]
Clc1ccccc1-c1nc(-c2cccnc2)no1	inconclusive: 1.84 µM [activator, full curve, poor fit]
COc1ccc2c(c1)c(C(O)CN1CCN(Cc3ccc4c(c3)OCO4)CC1)c(C)n2C (configuration not stated)	inconclusive: 5.17 µM [falling, full curve, poor fit]
CCn1nc(C)c(/C=N/NC(=O)CSc2ccccn2)c1C	inconclusive: 10.3 µM [activator, partial curve, poor fit]
CC(C)(C)C(=O)c1sc2nc(-c3cccs3)cc(C(F)(F)F)c2c1N	inconclusive: 29.1 µM [activator, partial curve, poor fit]
O=C(/C=C/c1cccc(F)c1)NCCCn1ccnc1	inconclusive: 16.4 µM [falling, single point]
COC(=O)c1ccc(S(=O)(=O)N2CCCN(Cc3ccc(F)cc3)CC2)n1C	active: 13 µM
Cc1ccccc1NC(=O)c1ccc2nccnc2c1	inconclusive: 29.1 µM [activator, single point]
Cc1cccc(-c2nc3ccccc3n2Cc2ccccc2)c1	inconclusive: 29.1 µM [falling, single point]
CS(=O)(=O)Nc1ccc(C(=O)NCc2ccc3c(c2)OCO3)cc1	inconclusive: 29.1 µM [falling, single point]
N#Cc1cccc(Oc2ccc(-c3cnc4ccccc4n3)cc2)c1C#N	inconclusive: 29.1 µM [falling, single point]
COc1cc(OC)cc(-c2nnc3n2N=C(c2c(OC)cccc2OC)CS3)c1	inconclusive: 25.9 µM [falling, partial curve]
O=C(O)/C=C/C(=O)Nc1ccccc1C(=O)OCC(=O)c1ccc2c(c1)OCCO2	inconclusive: 29.1 µM [falling, single point]
